Laboratory results published in US10244779B2, “Method of improving stability of sweet enhancer and composition containing stabilized sweet enhancer” (SENOMYX, INC., priority 2010, dated 2019).
Some entries share one result that the patent states for a list of compounds. For at least one compound, name, drawing or mass did not settle the structure.

Assay: Photostability test of sweet enhancers with/without photostabilizers in Q-Sun Xenon Test Chamber
Conditions: % of 25 μM Compound A remaining with the cinnamic acid or coumarin derivative at 100 ppm (Table 4); pH 2.8 buffer; Q-Sun 350 mW/m^2 @340 nm, 25° C.
Experimental: Aqueous buffer solution at pH 7.1 contains 50 mM potassium dihydrogen phosphate and ˜32 mM sodium hydroxide (solutions of 1.0 M hydrochloric acid and 1.0 M sodium hydroxide are used to adjust pH). Aqueous buffer solution at pH 4.0 contains 50 mM citric acidmonosodium salt and ˜7.4 mM sodium hydroxide (solutions of 1.0 M hydrochloric acid and 1.0 M sodium hydroxide are used to adjust pH). Aqueous buffer solution at pH 2.8 contains 50 mM citric acid and ˜16 mM sodium hydroxide (solutions of 1.0 M hydrochloric acid and 1.0 M sodium hydroxide are used to adjust pH).
The stock solutions of the test compounds at 25 mM are made by dissolving the compounds in dimethyl sulfoxide. The solutions of the stabilizers are made by dissolving the materials in the aqueous buffers. The stock solutions are then diluted to 25 μM with the stabilizer solutions to prepare the test solution and 4-mL aliquots of the solutions are transferred to 20-mL clear glass vial for testing. […]
The samples are analyzed using an Agilent 1100 LC/MSD equipped with a quaternary pump and a diode-array detector (DAD). The peak areas from the MSD chromatograms are used for quantitation, and the photostability is shown by plotting the percentages of the test compound which remains intact at all time points. The peak areas from the DAD chromatograms are used for quantitation for stabilizers with concentration at 250 uM or higher. […]

Q: With `COc1cc(C=CC(=O)O)cc(OC)c1O` (stereo in doubt) [sinapinic acid] as the compound, how does the “% Remaining @ 6 hrs” value read?
A: > 98%
